# Reference: the supplement of paper PMC8728848
# This is one part of the list.
# B1: Clec12b (Mus musculus), Q149M0 (protein)
# chain: MSDEVTYATLMLQDSARVRGNQDGNNLRKEGHPAQSSLWRGAALSLMTLCLVLVTGLVTLATMFLQVSNDINSDSEKLSQLQKSIHPQQDNLSESLNSSRKSLTEESLQSQISALLERQEQMATKLCKEFLIHASDHKCNPCPKTWQWYGNSCYYFSINEEKSWSDSRKDCIDKNATLVKIDSTEERDLLQSQLSLTFSFFWLGLSWNSSGRNWLWEDGSFPPPTLFSDKELASFNGSRDCAYFERGNIYASRCSAEIPWICEKTASLVKTEDLD
# Assays:
# Test in all cases: glycan array binding signal (z-score within array); higher = stronger binding
# Details in all cases: glycan notation: IUPAC condensed, linker removed
# [1] = molecular target: Fuc(a1-2)Gal(b1-4)GlcNAc(b1-3)Gal(b1-4)GlcNAc(b1-2)Man(a1-3)[Fuc(a1-2)Gal(b1-4)GlcNAc(b1-3)Gal(b1-4)GlcNAc(b1-2)Man(a1-6)]Man(b1-4)GlcNAc(b1-4)GlcNAc
# Method in brief: (§1)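 Glycan array data came from 3228 arrays in the Consortium for Functional Glycomics database, and only arrays with an available protein sequence were kept. Glycan names were put into IUPAC-condensed notation, and columns mapping to the same glycan were averaged. The binding signal is a within-array Z-score, averaged across arrays of one protein sequence run at different concentrations or buffers and across linkers. A negative Z-score can be read as non-binding.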
# [2] = molecular target: Fuc(a1-2)Gal(b1-4)GlcNAc(b1-3)Gal(b1-4)GlcNAc(b1-3)Gal(b1-4)GlcNAc
# Method in brief: as §1
# [3] = molecular target: Fuc(a1-2)Gal(b1-4)GlcNAc(b1-3)GalNAc
# Method in brief: as §1
# [4] = molecular target: Fuc(a1-2)Gal(b1-4)GlcNAc(b1-3)[Fuc(a1-2)Gal(b1-4)GlcNAc(b1-6)]GalNAc
# Method in brief: as §1
# [5] = molecular target: Fuc(a1-2)Gal(b1-4)GlcNAc(b1-3)[Fuc(a1-3)[Gal(b1-4)]GlcNAc(b1-6)]Gal(b1-4)Glc
# Method in brief: as §1
# [6] = molecular target: Fuc(a1-2)Gal(b1-4)GlcNAc(b1-6)GalNAc
# Method in brief: as §1
# [7] = molecular target: Fuc(a1-2)Gal(b1-4)GlcNAc6S
# Method in brief: as §1
# [8] = molecular target: Fuc(a1-2)Gal(b1-4)[Fuc(a1-3)]GlcNAc
# Method in brief: as §1
# [9] = molecular target: Fuc(a1-2)Gal(b1-4)[Fuc(a1-3)]GlcNAc(b1-2)Man(a1-3)[Fuc(a1-2)Gal(b1-4)[Fuc(a1-3)]GlcNAc(b1-2)Man(a1-6)]Man(b1-4)GlcNAc(b1-4)[Fuc(a1-6)]GlcNAc
# Method in brief: as §1
# [10] = molecular target: Fuc(a1-2)Gal(b1-4)[Fuc(a1-3)]GlcNAc(b1-2)[Fuc(a1-2)Gal(b1-4)[Fuc(a1-3)]GlcNAc(b1-4)]Man(a1-3)[Fuc(a1-2)Gal(b1-4)[Fuc(a1-3)]GlcNAc(b1-2)Man(a1-6)]Man(b1-4)GlcNAc(b1-4)GlcNAc
# Method in brief: as §1
# [11] = molecular target: Fuc(a1-2)Gal(b1-4)[Fuc(a1-3)]GlcNAc(b1-3)Gal(b1-4)[Fuc(a1-3)]GlcNAc
# Method in brief: as §1
# [12] = molecular target: Fuc(a1-2)Gal(b1-4)[Fuc(a1-3)]GlcNAc(b1-3)Gal(b1-4)[Fuc(a1-3)]GlcNAc(b1-3)Gal(b1-4)[Fuc(a1-3)]GlcNAc
# Method in brief: as §1
# [13] = molecular target: Fuc(a1-2)Gal(b1-4)[Fuc(a1-3)]GlcNAc(b1-3)GalNAc
# Method in brief: as §1
# [14] = molecular target: Fuc(a1-2)Gal(b1-4)[Fuc(a1-3)]GlcNAc(b1-3)[Neu5Ac(a2-6)Gal(b1-4)GlcNAc(b1-6)]Gal(b1-4)Glc
# Method in brief: as §1
# [15] = molecular target: Fuc(a1-2)Gal3S(b1-4)GlcNAc
# Method in brief: as §1
# [16] = molecular target: Fuc(a1-2)Gal6S(b1-3)GlcNAc
# Method in brief: as §1
# [17] = molecular target: Fuc(a1-2)Gal6S(b1-3)GlcNAc6S
# Method in brief: as §1
# [18] = molecular target: Fuc(a1-2)Gal6S(b1-4)Glc
# Method in brief: as §1
# [19] = molecular target: Fuc(a1-2)Gal6S(b1-4)Glc6S
# Method in brief: as §1
# [20] = molecular target: Fuc(a1-2)[Gal(a1-3)]Gal
# Method in brief: as §1
# [21] = molecular target: Fuc(a1-2)[Gal(a1-3)]Gal(b1-3)GalNAc
# Method in brief: as §1
# [22] = molecular target: Fuc(a1-2)[Gal(a1-3)]Gal(b1-3)GalNAc(b1-3)Gal(a1-4)Gal(b1-4)Glc
# Method in brief: as §1
# [23] = molecular target: Fuc(a1-2)[Gal(a1-3)]Gal(b1-3)GlcNAc
# Method in brief: as §1
# [24] = molecular target: Fuc(a1-2)[Gal(a1-3)]Gal(b1-3)GlcNAc(b1-2)Man(a1-3)[Fuc(a1-2)[Gal(a1-3)]Gal(b1-3)GlcNAc(b1-2)Man(a1-6)]Man(b1-4)GlcNAc(b1-4)GlcNAc
# Method in brief: as §1
# [25] = molecular target: Fuc(a1-2)[Gal(a1-3)]Gal(b1-3)GlcNAc(b1-2)Man(a1-3)[Fuc(a1-2)[Gal(a1-3)]Gal(b1-3)GlcNAc(b1-2)Man(a1-6)]Man(b1-4)GlcNAc(b1-4)[Fuc(a1-6)]GlcNAc
# Method in brief: as §1
# [26] = molecular target: Fuc(a1-2)[Gal(a1-3)]Gal(b1-3)GlcNAc(b1-3)GalNAc
# Method in brief: as §1
# [27] = molecular target: Fuc(a1-2)[Gal(a1-3)]Gal(b1-3)GlcNAc(b1-6)GalNAc
# Method in brief: as §1
# [28] = molecular target: Fuc(a1-2)[Gal(a1-3)]Gal(b1-4)Glc
# Method in brief: as §1
# [29] = molecular target: Fuc(a1-2)[Gal(a1-3)]Gal(b1-4)GlcNAc
# Method in brief: as §1
# [30] = molecular target: Fuc(a1-2)[Gal(a1-3)]Gal(b1-4)GlcNAc(b1-2)Man
# Method in brief: as §1
binder,measurement,setting,value
B1,glycan array binding signal (z-score),[1],-0.327
same,glycan array binding signal (z-score),[2],-0.669
same,glycan array binding signal (z-score),[3],-0.546
same,glycan array binding signal (z-score),[4],-0.299
same,glycan array binding signal (z-score),[5],-0.318
same,glycan array binding signal (z-score),[6],0.471
same,glycan array binding signal (z-score),[7],-0.417
same,glycan array binding signal (z-score),[8],0.074
same,glycan array binding signal (z-score),[9],-0.372
same,glycan array binding signal (z-score),[10],2.82
same,glycan array binding signal (z-score),[11],-0.54
same,glycan array binding signal (z-score),[12],0.741
same,glycan array binding signal (z-score),[13],-0.496
same,glycan array binding signal (z-score),[14],-0.177
same,glycan array binding signal (z-score),[15],0.102
same,glycan array binding signal (z-score),[16],0.009
same,glycan array binding signal (z-score),[17],0.735
same,glycan array binding signal (z-score),[18],0.808
same,glycan array binding signal (z-score),[19],-0.568
same,glycan array binding signal (z-score),[20],0.573
same,glycan array binding signal (z-score),[21],-0.018
same,glycan array binding signal (z-score),[22],-0.052
same,glycan array binding signal (z-score),[23],1.61
same,glycan array binding signal (z-score),[24],0.021
same,glycan array binding signal (z-score),[25],-0.484
same,glycan array binding signal (z-score),[26],-0.552
same,glycan array binding signal (z-score),[27],0.184
same,glycan array binding signal (z-score),[28],0.465
same,glycan array binding signal (z-score),[29],-0.392
same,glycan array binding signal (z-score),[30],-0.596

# As a short view, some entries already given.
binder,measurement,setting,value
B1,glycan array binding signal (z-score),[8],0.074
same,glycan array binding signal (z-score),[9],-0.372
